Results are given in words; binding and its absence hold for the method and conditions named. Binding seen in cells or lysates may run through a third protein. These calls come from enrichment with a bait or labelling near it, and not all partners need be listed.

The chains behind the UniProt entries cited, without tags or fusion partners.
UniProt Q01167: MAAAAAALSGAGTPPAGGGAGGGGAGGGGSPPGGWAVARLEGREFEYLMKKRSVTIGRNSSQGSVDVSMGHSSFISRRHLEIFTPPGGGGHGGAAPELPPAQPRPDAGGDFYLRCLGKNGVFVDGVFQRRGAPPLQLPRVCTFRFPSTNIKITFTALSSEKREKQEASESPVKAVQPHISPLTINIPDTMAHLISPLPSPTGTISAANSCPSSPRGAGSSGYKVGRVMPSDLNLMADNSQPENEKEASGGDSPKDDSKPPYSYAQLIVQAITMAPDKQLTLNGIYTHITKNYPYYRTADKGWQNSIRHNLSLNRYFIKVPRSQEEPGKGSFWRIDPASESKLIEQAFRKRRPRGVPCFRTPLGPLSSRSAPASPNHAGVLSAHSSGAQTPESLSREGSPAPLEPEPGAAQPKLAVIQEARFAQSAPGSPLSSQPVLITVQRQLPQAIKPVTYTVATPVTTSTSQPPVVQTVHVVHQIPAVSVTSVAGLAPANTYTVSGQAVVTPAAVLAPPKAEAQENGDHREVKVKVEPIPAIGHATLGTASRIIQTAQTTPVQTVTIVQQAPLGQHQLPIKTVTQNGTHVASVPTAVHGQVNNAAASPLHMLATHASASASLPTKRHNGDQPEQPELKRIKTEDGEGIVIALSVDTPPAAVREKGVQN
UniProt Q09028: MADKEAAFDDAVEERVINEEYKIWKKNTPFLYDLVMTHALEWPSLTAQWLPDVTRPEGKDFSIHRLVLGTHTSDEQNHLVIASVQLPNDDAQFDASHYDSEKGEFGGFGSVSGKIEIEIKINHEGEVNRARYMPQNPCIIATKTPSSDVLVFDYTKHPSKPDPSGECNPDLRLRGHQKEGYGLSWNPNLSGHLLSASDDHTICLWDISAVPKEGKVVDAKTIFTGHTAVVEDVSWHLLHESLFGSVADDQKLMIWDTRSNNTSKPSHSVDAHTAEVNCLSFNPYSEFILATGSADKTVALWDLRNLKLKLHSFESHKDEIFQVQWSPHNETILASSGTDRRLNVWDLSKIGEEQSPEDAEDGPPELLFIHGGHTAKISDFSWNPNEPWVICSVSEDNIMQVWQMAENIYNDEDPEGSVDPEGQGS
UniProt Q13547: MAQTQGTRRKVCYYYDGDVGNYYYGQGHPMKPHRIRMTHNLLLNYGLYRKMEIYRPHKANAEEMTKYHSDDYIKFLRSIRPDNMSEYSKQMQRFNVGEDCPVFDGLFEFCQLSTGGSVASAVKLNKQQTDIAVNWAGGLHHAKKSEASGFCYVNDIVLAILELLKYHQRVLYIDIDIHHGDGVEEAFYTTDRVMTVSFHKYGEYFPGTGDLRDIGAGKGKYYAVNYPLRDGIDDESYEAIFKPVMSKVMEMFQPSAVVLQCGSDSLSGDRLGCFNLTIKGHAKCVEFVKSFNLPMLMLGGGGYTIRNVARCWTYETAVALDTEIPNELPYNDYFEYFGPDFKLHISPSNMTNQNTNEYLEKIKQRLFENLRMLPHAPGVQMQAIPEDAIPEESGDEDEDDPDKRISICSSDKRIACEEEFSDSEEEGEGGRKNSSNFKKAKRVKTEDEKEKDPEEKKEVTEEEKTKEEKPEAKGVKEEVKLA

The assay has as its target Flag-tagged FOXK2 (FOXK2–HF) (UniProt Q01167). In words: affinity purification with mass spectrometry; RIME: formaldehyde cross-linked U2OS–FOXK2–HF cells, anti-Flag M2 immunoprecipitation of FOXK2, mass spectrometry; control IPs from U2OS–HF cells.

In the case of RBBP4 (from UniProt Q09028 1-425), the binding entry was “binds”. Turning to “endogenous HDAC1 (from UniProt Q13547 1-482) (enzyme)”, the binding entry is recorded as “binds”.

(Values after paper PMC4041447.)
